Data: paper PMC9010950
No constants are given. Whether binding was seen depends on the method and setting. In cells and extracts the contact can be indirect. Some entries that bind do so weakly or less than the wild type. Sequences can lack the tags named with a protein.

Biological target: T1, carboxypeptidase N1 (CPN1), overexpressed from pCMV3-SP-Flag-CPN1 (UniProt P15169)
T1 sequence: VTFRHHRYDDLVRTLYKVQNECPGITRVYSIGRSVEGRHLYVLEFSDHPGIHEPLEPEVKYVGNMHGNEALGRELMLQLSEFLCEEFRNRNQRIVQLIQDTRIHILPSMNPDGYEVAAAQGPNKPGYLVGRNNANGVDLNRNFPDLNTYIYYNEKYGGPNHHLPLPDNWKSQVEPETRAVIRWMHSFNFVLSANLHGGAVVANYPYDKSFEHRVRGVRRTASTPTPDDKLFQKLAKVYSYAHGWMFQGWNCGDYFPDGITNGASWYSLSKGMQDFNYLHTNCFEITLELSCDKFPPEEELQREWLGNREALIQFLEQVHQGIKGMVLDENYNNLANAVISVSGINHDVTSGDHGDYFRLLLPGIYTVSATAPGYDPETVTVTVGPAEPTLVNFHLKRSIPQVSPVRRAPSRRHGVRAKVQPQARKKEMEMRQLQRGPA
Assay: co-IP; 293T cells; Co-IP Kit (Thermo Fisher Scientific); part of the eluate subjected to SDS-PAGE; validation blot of Figure 1C

B1: retinoic acid-induced protein 14 (RAI14) (protein, UniProt Q9P0K7 1-980)
chain: MKSLKAKFRKSDTNEWNKNDDRLLQAVENGDAEKVASLLGKKGASATKHDSEGKTAFHLAAAKGHVECLRVMITHGVDVTAQDTTGHSALHLAAKNSHHECIRKLLQSKCPAESVDSSGKTALHYAAAQGCLQAVQILCEHKSPINLKDLDGNIPLLLAVQNGHSEICHFLLDHGADVNSRNKSGRTALMLACEIGSSNAVEALIKKGADLNLVDSLGYNALHYSKLSENAGIQSLLLSKISQDADLKTPTKPKQHDQVSKISSERSGTPKKRKAPPPPISPTQLSDVSSPRSITSTPLSGKESVFFAEPPFKAEISSIRENKDRLSDSTTGADSLLDISSEADQQDLLSLLQAKVASLTLHNKELQDKLQAKSPKEAEADLSFDSYHSTQTDLGPSLGKPGETSPPDSKSSPSVLIHSLGKSTTDNDVRIQQLQEILQDLQKRLESSEAERKQLQVELQSRRAELVCLNNTEISENSSDLSQKLKETQSKYEEAMKEVLSVQKQMKLGLVSPESMDNYSHFHELRVTEEEINVLKQDLQNALEESERNKEKVRELEEKLVEREKGTVIKPPVEEYEEMKSSYCSVIENMNKEKAFLFEKYQEAQEEIMKLKDTLKSQMTQEASDEAEDMKEAMNRMIDELNKQVSELSQLYKEAQAELEDYRKRKSLEDVTAEYIHKAEHEKLMQLTNVSRAKAEDALSEMKSQYSKVLNELTQLKQLVDAQKENSVSITEHLQVITTLRTAAKEMEEKISNLKEHLASKEVEVAKLEKQLLEEKAAMTDAMVPRSSYEKLQSSLESEVSVLASKLKESVKEKEKVHSEVVQIRSEVSQVKREKENIQTLLKSKEQEVNELLQKFQQAQEELAEMKRYAESSSKLEEDKDKKINEMSKEVTKLKEALNSLSQLSYSTSSSKRQSQQLEALQQQVKQLQNQLAECKKQHQEVISVYRMHLLYAVQGQMDEDVQKVLKQILTMCKNQSQKK
  binding: binds
